{"sequences": {"note": "Sequences of proteins named here, by UniProt entry; tags and fusion partners are left off. Residues count along the entry.", "UniProt P47869, 29-451": "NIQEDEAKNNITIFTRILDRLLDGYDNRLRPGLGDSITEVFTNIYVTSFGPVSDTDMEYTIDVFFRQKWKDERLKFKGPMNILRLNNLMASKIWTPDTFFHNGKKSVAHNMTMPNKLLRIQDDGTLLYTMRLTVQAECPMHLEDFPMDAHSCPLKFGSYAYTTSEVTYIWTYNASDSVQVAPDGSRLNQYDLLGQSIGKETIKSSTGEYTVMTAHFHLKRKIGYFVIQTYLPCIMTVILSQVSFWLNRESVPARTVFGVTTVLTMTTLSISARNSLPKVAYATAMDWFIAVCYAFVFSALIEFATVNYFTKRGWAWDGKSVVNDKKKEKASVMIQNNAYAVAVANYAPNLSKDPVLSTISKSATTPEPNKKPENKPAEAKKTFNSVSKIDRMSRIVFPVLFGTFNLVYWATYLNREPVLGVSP", "UniProt P31644, 32-462": "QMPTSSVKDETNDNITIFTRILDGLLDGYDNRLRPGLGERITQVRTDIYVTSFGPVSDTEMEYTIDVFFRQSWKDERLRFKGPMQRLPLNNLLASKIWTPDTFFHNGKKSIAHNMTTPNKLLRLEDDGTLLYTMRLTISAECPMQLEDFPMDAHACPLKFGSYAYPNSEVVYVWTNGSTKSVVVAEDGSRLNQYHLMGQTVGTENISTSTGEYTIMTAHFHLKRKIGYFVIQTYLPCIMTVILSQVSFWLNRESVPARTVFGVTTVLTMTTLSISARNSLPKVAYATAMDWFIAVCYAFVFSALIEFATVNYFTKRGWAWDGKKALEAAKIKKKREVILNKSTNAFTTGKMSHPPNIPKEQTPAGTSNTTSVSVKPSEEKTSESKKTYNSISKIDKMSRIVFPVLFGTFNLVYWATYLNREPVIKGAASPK", "UniProt P34903, 29-492": "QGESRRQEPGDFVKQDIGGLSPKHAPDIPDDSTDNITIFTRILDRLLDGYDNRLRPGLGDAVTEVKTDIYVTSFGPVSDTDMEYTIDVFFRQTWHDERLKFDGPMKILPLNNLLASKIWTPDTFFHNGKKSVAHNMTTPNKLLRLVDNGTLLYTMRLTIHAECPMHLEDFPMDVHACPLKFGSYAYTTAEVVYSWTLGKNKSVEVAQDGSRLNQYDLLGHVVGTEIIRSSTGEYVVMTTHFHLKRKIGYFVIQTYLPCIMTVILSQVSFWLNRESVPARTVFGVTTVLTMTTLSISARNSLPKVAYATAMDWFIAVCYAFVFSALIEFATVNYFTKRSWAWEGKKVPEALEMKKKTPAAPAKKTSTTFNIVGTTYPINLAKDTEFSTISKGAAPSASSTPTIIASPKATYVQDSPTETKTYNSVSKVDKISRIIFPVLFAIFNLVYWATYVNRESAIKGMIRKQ"}, "source": "patent US20080175903A1", "about": "“Treatment of anxiety with eszopiclone” (Sepracor Inc., priority 2006, published 2008)", "key": {"[1]": {"target": "T1, α2-containing GABAA receptors (human α2, β3, γ2L) (Homo sapiens, UniProt P18507+P47869)", "T1 construct": "expressed in transfected cells; host or cells: Xenopus oocytes (cDNA injected, alpha:beta:gamma 1:1:3)", "assay": "Potentiation of GABA evoked currents, recombinant GABA-A receptors in Xenopus oocytes, two-electrode voltage clamp", "type": "cell-based", "conditions": "α2 subtype; GABA at EC10; doubling of current = potentiation ratio 1.0", "protocol": "(§1) FIG. 2 is a plot showing the concentration-dependent potentiation of GABA evoked currents by (S)-zopiclone. For all experiments, human cDNA encoding each subunit was injected in oocytes in a stoichiometry of 1:1:3 (alpha, beta, gamma subunits). Approximately 24 hours later, GABA evoked currents (using a concentration of GABA equal to the EC10) were recorded from oocytes using a two-electrode voltage clamp on a robotic oocyte platform and a constant voltage of −80 mV. GABA was applied to the oocytes via a perfusion system for 20 seconds and then removed. An inward deflection of the current trace was recorded and subsequently compared to the responses resulting from applying the same concentration of GABA plus varying concentrations of the test compound ((S)-zopiclone). A doubling of the GABA evoked current is represented as a potentiation ratio of 1.0.\n(§2) The GABA-A receptor is gated by GABA, and ligands at the benzodiazepine site potentiate GABA-evoked currents. It is well-established in the scientific literature that classical benzodiazepines potentiate GABA evoked chloride currents through GABA-A receptors. The efficacies of classical benzodiazepines can be described as “full modulators” referring to their ability to increase the chloride currents induced by sub-maximal GABA concentrations. The action of (S)-zopiclone on GABA-A receptors was evaluated by examining their effects on electrophysiological recordings in a recombinant expression system.\n(§3) Recombinant GABA-A receptors were expressed in Xenopus oocytes by injecting cDNA encoding the human β3, γ2L, and each of α1, α2, α3, or α5 subunits in turn to assemble functional channels. Channel activity was measured using two-electrode voltage clamp in whole cell configuration on a robotic workstation. […] The potentiation ratio was then measured as the fold-increase in current generated by a (S)-zopiclone plus an EC10 of GABA, compared to the current generated by just the EC10 of GABA alone. These potentiation ratios were measured at a range of (S)-zopiclone concentrations to generate a subsequent concentration response curve at each of the subtypes using between 2 and 7 oocytes. […]\n(§4) For all experiments, human cDNA encoding each subunit was injected in oocytes in a stoichiometry of 1:1:3 (alpha, beta, gamma subunits). Approximately 24 hours later, GABA evoked currents (using a concentration of GABA equal to the EC10) were recorded from oocytes using a two-electrode voltage clamp on a robotic oocyte platform and a constant voltage of −80 mV. […] An inward deflection of the current trace was recorded and subsequently compared to the responses resulting from applying the same concentration of GABA plus varying concentrations of the test compound [(S)-zopiclone]. […]"}, "[2]": {"target": "T2, α1-containing GABAA receptors (human α1, β3, γ2L) (Homo sapiens, UniProt P14867+P18507)", "T2 construct": "expressed in transfected cells; host or cells: Xenopus oocytes (cDNA injected, alpha:beta:gamma 1:1:3)", "assay": "Potentiation of GABA evoked currents, recombinant GABA-A receptors in Xenopus oocytes, two-electrode voltage clamp", "type": "cell-based", "conditions": "α1 subtype; GABA at EC10; doubling of current = potentiation ratio 1.0", "protocol": "as §1, §2, §3, §4"}, "[3]": {"target": "T3, α5-containing GABAA receptors (human α5, β3, γ2L) (Homo sapiens, UniProt P18507+P31644)", "T3 construct": "expressed in transfected cells; host or cells: Xenopus oocytes (cDNA injected, alpha:beta:gamma 1:1:3)", "assay": "Potentiation of GABA evoked currents, recombinant GABA-A receptors in Xenopus oocytes, two-electrode voltage clamp", "type": "cell-based", "conditions": "α5 subtype; GABA at EC10; doubling of current = potentiation ratio 1.0", "protocol": "as §1, §2, §3, §4"}, "[4]": {"target": "T4, α3-containing GABAA receptors (human α3, β3, γ2L) (Homo sapiens, UniProt P18507+P34903)", "T4 construct": "expressed in transfected cells; host or cells: Xenopus oocytes (cDNA injected, alpha:beta:gamma 1:1:3)", "assay": "Potentiation of GABA evoked currents, recombinant GABA-A receptors in Xenopus oocytes, two-electrode voltage clamp", "type": "cell-based", "conditions": "α3 subtype; GABA at EC10; doubling of current = potentiation ratio 1.0", "protocol": "as §1, §2, §3, §4"}, "rhesus monkeys": {"tested_on": "rhesus monkeys", "assay": "Rhesus monkey conflict procedure (suppressed and non-suppressed responding)", "type": "in vivo", "conditions": "compared with classical benzodiazepines", "protocol": "FIG. 3 is a plot of rates of non-suppressed and suppressed responding by rhesus monkeys trained in a conflict procedure. Monkeys were injected i.v. with cumulative doses of (S)-zopiclone. Data are mean±S.E.M. for N=4 monkeys. Points above “V” represent data following drug vehicle administration. Note that *P<0.05 vs. V (control). Experimental methodology was identical to that described by Rowlett J K et al. (2006).\n“Conflict Procedure,” as used herein refers to the rhesus monkey conflict procedure reported by Rowlett et al. (Psychopharmacology (2006) 184:201-211). Antianxiety dosage determination in rhesus monkeys using the procedure set forth by Rowlett et al. is correlative with antianxiety dosages in humans. The conflict procedure is a method of determining the parameters correlating a clinically determinable effect of eszopiclone in rhesus monkeys with analogous effects in a human subject. The results of conflict procedures in rhesus monkeys are closely correlated with dosages of agents providing anxiolysis in humans. […]\nA linear relationship between relative potency to induce clinical effects in humans and relative potency to increase suppressed responding or decrease non-suppressed responding in monkeys has been determined previously for 10 standard benzodiazepines (Rowlett et al., 2006). […]"}, "[5]": {"tested_on": "healthy adult male human subjects", "assay": "EEG study (quantitative wake EEG) of single doses of eszopiclone versus placebo", "type": "in vivo", "protocol": "A study was conducted to evaluate the pharmacodynamic (quantitative wake electroencephalogram (qEEG) and auditory P300 (evoked potentials (EPs)) of four doses of eszopiclone, relative to placebo, in healthy adult male human subjects. The study was single-blind, placebo-controlled, ascending, single dose. Subjects received single doses of immediate release formulations that contained 0.3 mg of eszopiclone, 0.6 mg of eszopiclone, 0.9 mg of eszopiclone or 2.0 mg of eszopiclone.\nChanges in beta EEG activity are interpreted as indicating an anxiolytic effect (Ansseau et al, Neuropsychobiology 1984, 12(4):255-9; Buchsbaum et al, Biol. Psychiatry, 1985, 20(8):832-42; Macher et al, Human psychopharmacology, 1990 (eds I Hindmarch and P D Stonier), Vol 3, 10-2; Mandema and Danhof, Clin Pharmacokinet, 1992, 23(3):191-215.\nIn this study, statistical EEG maps were obtained comparing EEG power values for each dose of eszopiclone versus placebo. […] The dose effect is further illustrated in the graphically depicted results of FIG. 4 which follows.\nClassically, delta activity in pharmaco-EEG indicates a sedative effect of the drug under study. Delta EEG activity is clearly modified when the sedative drug effect has reached a high threshold. […]"}}, "note": "For at least one compound, name, drawing or mass did not settle the structure."}
{"smiles": "CN1CCN(C(=O)O[C@H]2c3nccnc3C(=O)N2c2ccc(Cl)cn2)CC1", "note": "[Eszopiclone, (+)-(5S)-6-(chloropyridin-2-yl)-7-oxo-6,7-dihydro-5H-pyrrolo[3,4-b]pyrazin-5-yl 4-methyl-piperazine-1-carboxylate]", "values": [{"measurement": "maximal fold-increase (potentiation)", "setting": "[1]", "result": 2.7}, {"measurement": "maximal fold-increase (potentiation)", "setting": "[2]", "result": 1.7}, {"measurement": "maximal fold-increase (potentiation)", "setting": "[3]", "result": 2.1}, {"measurement": "maximal fold-increase (potentiation)", "setting": "[4]", "result": 2.7}, {"measurement": "anti-conflict effects in the rhesus model", "setting": "rhesus monkeys", "result": "indistinguishable from the classical benzodiazepines' effects"}, {"measurement": "Theta EEG activity (theta power, absolute and relative), change from placebo", "setting": "[5]; all doses (0.3-2.0 mg), dose dependence", "result": "significant decrease in theta power"}, {"measurement": "Beta EEG activity (change from placebo)", "setting": "[5]; single doses 0.3, 0.6, 0.9, 2.0 mg immediate release, dose-dependent", "result": "significant increase in beta band and/or one or several beta sub bands"}]}
